# Test results: the supplement of paper PMC8728848
# Some of the results follow.
# Key:
# Assay in all cases: glycan array binding signal (z-score within array); higher = stronger binding
# Settings in all cases: glycan notation: IUPAC condensed, linker removed
# [1] = molecular target: Fuc(a1-2)Gal(b1-4)GlcNAc(b1-3)Gal(b1-4)GlcNAc(b1-2)Man(a1-3)[Fuc(a1-2)Gal(b1-4)GlcNAc(b1-3)Gal(b1-4)GlcNAc(b1-2)Man(a1-6)]Man(b1-4)GlcNAc(b1-4)GlcNAc
# How it was run: (§1)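 The binding signal is a Z-score computed within each array. Data were drawn from 3228 arrays in the Consortium for Functional Glycomics database, restricted to those with a known protein sequence. Scores were averaged over arrays of the same protein sequence at different concentrations or buffers, and over linkers, and negative values can be taken as non-binding.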
# [2] = molecular target: Fuc(a1-2)Gal(b1-4)GlcNAc(b1-3)Gal(b1-4)GlcNAc(b1-3)Gal(b1-4)GlcNAc
# How it was run: as §1
# [3] = molecular target: Fuc(a1-2)Gal(b1-4)GlcNAc(b1-3)GalNAc
# How it was run: as §1
# [4] = molecular target: Fuc(a1-2)Gal(b1-4)GlcNAc(b1-3)[Fuc(a1-2)Gal(b1-4)GlcNAc(b1-6)]GalNAc
# How it was run: as §1
# [5] = molecular target: Fuc(a1-2)Gal(b1-4)GlcNAc(b1-3)[Fuc(a1-3)[Gal(b1-4)]GlcNAc(b1-6)]Gal(b1-4)Glc
# How it was run: as §1
# [6] = molecular target: Fuc(a1-2)Gal(b1-4)GlcNAc(b1-6)GalNAc
# How it was run: as §1
# [7] = molecular target: Fuc(a1-2)Gal(b1-4)GlcNAc6S
# How it was run: as §1
# [8] = molecular target: Fuc(a1-2)Gal(b1-4)[Fuc(a1-3)]GlcNAc
# How it was run: as §1
# [9] = molecular target: Fuc(a1-2)Gal(b1-4)[Fuc(a1-3)]GlcNAc(b1-2)Man(a1-3)[Fuc(a1-2)Gal(b1-4)[Fuc(a1-3)]GlcNAc(b1-2)Man(a1-6)]Man(b1-4)GlcNAc(b1-4)[Fuc(a1-6)]GlcNAc
# How it was run: as §1
# [10] = molecular target: Fuc(a1-2)Gal(b1-4)[Fuc(a1-3)]GlcNAc(b1-2)[Fuc(a1-2)Gal(b1-4)[Fuc(a1-3)]GlcNAc(b1-4)]Man(a1-3)[Fuc(a1-2)Gal(b1-4)[Fuc(a1-3)]GlcNAc(b1-2)Man(a1-6)]Man(b1-4)GlcNAc(b1-4)GlcNAc
# How it was run: as §1
# [11] = molecular target: Fuc(a1-2)Gal(b1-4)[Fuc(a1-3)]GlcNAc(b1-3)Gal(b1-4)[Fuc(a1-3)]GlcNAc
# How it was run: as §1
# [12] = molecular target: Fuc(a1-2)Gal(b1-4)[Fuc(a1-3)]GlcNAc(b1-3)Gal(b1-4)[Fuc(a1-3)]GlcNAc(b1-3)Gal(b1-4)[Fuc(a1-3)]GlcNAc
# How it was run: as §1
# [13] = molecular target: Fuc(a1-2)Gal(b1-4)[Fuc(a1-3)]GlcNAc(b1-3)GalNAc
# How it was run: as §1
# [14] = molecular target: Fuc(a1-2)Gal(b1-4)[Fuc(a1-3)]GlcNAc(b1-3)[Neu5Ac(a2-6)Gal(b1-4)GlcNAc(b1-6)]Gal(b1-4)Glc
# How it was run: as §1
# [15] = molecular target: Fuc(a1-2)Gal3S(b1-4)GlcNAc
# How it was run: as §1
# [16] = molecular target: Fuc(a1-2)Gal6S(b1-3)GlcNAc
# How it was run: as §1
# [17] = molecular target: Fuc(a1-2)Gal6S(b1-3)GlcNAc6S
# How it was run: as §1
# Fuc(a1-2)Gal6S(b1-4)Glc = molecular target: Fuc(a1-2)Gal6S(b1-4)Glc
# How it was run: as §1
# [18] = molecular target: Fuc(a1-2)Gal6S(b1-4)Glc6S
# How it was run: as §1
# Fuc(a1-2)GlcNAc = molecular target: Fuc(a1-2)GlcNAc
# How it was run: as §1
# Fuc(a1-2)[Gal(a1-3)]Gal = molecular target: Fuc(a1-2)[Gal(a1-3)]Gal
# How it was run: as §1
# [19] = molecular target: Fuc(a1-2)[Gal(a1-3)]Gal(b1-3)GalNAc
# How it was run: as §1
# [20] = molecular target: Fuc(a1-2)[Gal(a1-3)]Gal(b1-3)GalNAc(b1-3)Gal(a1-4)Gal(b1-4)Glc
# How it was run: as §1
# [21] = molecular target: Fuc(a1-2)[Gal(a1-3)]Gal(b1-3)GlcNAc
# How it was run: as §1
# [22] = molecular target: Fuc(a1-2)[Gal(a1-3)]Gal(b1-3)GlcNAc(b1-2)Man(a1-3)[Fuc(a1-2)[Gal(a1-3)]Gal(b1-3)GlcNAc(b1-2)Man(a1-6)]Man(b1-4)GlcNAc(b1-4)GlcNAc
# How it was run: as §1
# [23] = molecular target: Fuc(a1-2)[Gal(a1-3)]Gal(b1-3)GlcNAc(b1-2)Man(a1-3)[Fuc(a1-2)[Gal(a1-3)]Gal(b1-3)GlcNAc(b1-2)Man(a1-6)]Man(b1-4)GlcNAc(b1-4)[Fuc(a1-6)]GlcNAc
# How it was run: as §1
# [24] = molecular target: Fuc(a1-2)[Gal(a1-3)]Gal(b1-3)GlcNAc(b1-3)GalNAc
# How it was run: as §1
# [25] = molecular target: Fuc(a1-2)[Gal(a1-3)]Gal(b1-3)GlcNAc(b1-6)GalNAc
# How it was run: as §1
# [26] = molecular target: Fuc(a1-2)[Gal(a1-3)]Gal(b1-4)Glc
# How it was run: as §1
# [27] = molecular target: Fuc(a1-2)[Gal(a1-3)]Gal(b1-4)GlcNAc
# How it was run: as §1
binder,measurement,setting,value
"Endo180d1-D4 (Homo sapiens), Q9UBG0 (protein) MGPGRPAPAPWPRHLLRCVLLLGCLHLGRPGAPGDAALPEPNVFLIFSHGLQGCLEAQGGQVRVTPACNTSLPAQRWKWVSRNRLFNLGTMQCLGTGWPGTNTTASLGMYECDREALNLRWHCRTLGDQLSLLLGARTSNISKPGTLERGDQTRSGQWRIYGSEEDLCALPYHEVYTIQGNSHGKPCTIPFKYDNQWFHGCTSTGREDGHLWCATTQDYGKDERWGFCPIKSNDCETFWDKDQLTDSCYQFNFQSTLSWREAWASCEQQGADLLSITEIHEQTYINGLLTGYSSTLWIGLNDLDTSGGWQWSDNSPLKYLNWESDQPDNPSEENCGVIRTESSGGWQNRDCSIALPYVCKKKPNATAEPTPPDRWANVKVECEPSWQPFQGHCYRLQAEKRSWQESKKACLRGGGDLVSIHSMAELEFITKQIKQEVEELWIGLNDLKLQMNFEWSDGSLVSFTHWHPFEPNNFRDSLEDCVTIWGPEGRWNDSPCNQSLPSICKKAGQLSQGAAEEDHGCRKGWTWHSPSCYWLGEDQVTYSEARRLCTDHGSQLVTITNRFEQAFVSSLIYNWEGEYFWTALQDLNSTGSFFWLSGDEVMYTHWNRDQPGYSRGGCVALATGSAMGLWEVKNCTSFRARYICRQSLGTPVTPELPGPDPTPSLTGSCPQGWASDTKLRYCYKVFSSERLQDKKSWVQAQGACQELGAQLLSLASYEEEHFVANMLNKIFGESEPEIHEQHWFWIGLNRRDPRGGQSWRWSDGVGFSYHNFDRSRHDDDDIRGCAVLDLASLQWVAMQCDTQLDWICKIPRGTDVREPDDSPQGRREWLRFQEAEYKFFEHHSTWAQAQRICTWFQAELTSVHSQAELDFLSHNLQKFSRAQEQHWWIGLHTSESDGRFRWTDGSIINFISWAPGKPRPVGKDKKCVYMTASREDWGDQRCLTALPYICKRSNVTKETQPPDLPTTALGGCPSDWIQFLNKCFQVQGQEPQSRVKWSEAQFSCEQQEAQLVTITNPLEQAFITASLPNVTFDLWIGLHASQRDFQWVEQEPLMYANWAPGEPSGPSPAPSGNKPTSCAVVLHSPSAHFTGRWDDRSCTEETHGFICQKGTDPSLSPSPAALPPAPGTELSYLNGTFRLLQKPLRWHDALLLCESHNASLAYVPDPYTQAFLTQAARGLRTPLWIGLAGEEGSRRYSWVSEEPLNYVGWQDGEPQQPGGCTYVDVDGAWRTTSCDTKLQGAVCGVSSGPPPPRRISYHGSCPQGLADSAWIPFREHCYSFHMELLLGHKEARQRCQRAGGAVLSILDEMENVFVWEHLQSYEGQSRGAWLGMNFNPKGGTLVWQDNTAVNYSNWGPPGLGPSMLSHNSCYWIQSNSGLWRPGACTNITMGVVCKLPRAEQSSFSPSALPENPAALVVVLMAVLLLLALLTAALILYRRRQSIERGAFEGARYSRSSSSPTEATEKNILVSDMEMNEQQE",glycan array binding signal (z-score),[1],-1.43
same,glycan array binding signal (z-score),[2],-0.515
same,glycan array binding signal (z-score),[3],-0.326
same,glycan array binding signal (z-score),[4],0.043
same,glycan array binding signal (z-score),[5],2.16
same,glycan array binding signal (z-score),[6],0.241
same,glycan array binding signal (z-score),[7],-0.503
same,glycan array binding signal (z-score),[8],0.153
same,glycan array binding signal (z-score),[9],-0.683
same,glycan array binding signal (z-score),[10],0.707
same,glycan array binding signal (z-score),[11],1.23
same,glycan array binding signal (z-score),[12],-0.015
same,glycan array binding signal (z-score),[13],-0.774
same,glycan array binding signal (z-score),[14],-0.988
same,glycan array binding signal (z-score),[15],-0.383
same,glycan array binding signal (z-score),[16],0.254
same,glycan array binding signal (z-score),[17],0.591
same,glycan array binding signal (z-score),Fuc(a1-2)Gal6S(b1-4)Glc,-0.051
same,glycan array binding signal (z-score),[18],-1.82
same,glycan array binding signal (z-score),Fuc(a1-2)GlcNAc,-0.251
same,glycan array binding signal (z-score),Fuc(a1-2)[Gal(a1-3)]Gal,-0.587
same,glycan array binding signal (z-score),[19],0.04
same,glycan array binding signal (z-score),[20],-0.341
same,glycan array binding signal (z-score),[21],0.125
same,glycan array binding signal (z-score),[22],-0.265
same,glycan array binding signal (z-score),[23],0.622
same,glycan array binding signal (z-score),[24],-0.445
same,glycan array binding signal (z-score),[25],0.628
same,glycan array binding signal (z-score),[26],-0.174
same,glycan array binding signal (z-score),[27],-0.059
